In the supplement of paper PMC3334620:
The full ranking holds about 33,000 sequences; the median of “E-score (-0.5 to 0.5)” is about -0.016, and the highest 2% start at about 0.3. Some of the results follow.

These sequences were tested against T1, Yer184c (UniProt P39961) (assay: PBM E-score (8-mer binding enrichment) (E-score (-0.5 to 0.5)); higher = stronger / more preferred TF binding). Conditions: protein concentration: 100 nM; construct: GST-full length.
T1 sequence: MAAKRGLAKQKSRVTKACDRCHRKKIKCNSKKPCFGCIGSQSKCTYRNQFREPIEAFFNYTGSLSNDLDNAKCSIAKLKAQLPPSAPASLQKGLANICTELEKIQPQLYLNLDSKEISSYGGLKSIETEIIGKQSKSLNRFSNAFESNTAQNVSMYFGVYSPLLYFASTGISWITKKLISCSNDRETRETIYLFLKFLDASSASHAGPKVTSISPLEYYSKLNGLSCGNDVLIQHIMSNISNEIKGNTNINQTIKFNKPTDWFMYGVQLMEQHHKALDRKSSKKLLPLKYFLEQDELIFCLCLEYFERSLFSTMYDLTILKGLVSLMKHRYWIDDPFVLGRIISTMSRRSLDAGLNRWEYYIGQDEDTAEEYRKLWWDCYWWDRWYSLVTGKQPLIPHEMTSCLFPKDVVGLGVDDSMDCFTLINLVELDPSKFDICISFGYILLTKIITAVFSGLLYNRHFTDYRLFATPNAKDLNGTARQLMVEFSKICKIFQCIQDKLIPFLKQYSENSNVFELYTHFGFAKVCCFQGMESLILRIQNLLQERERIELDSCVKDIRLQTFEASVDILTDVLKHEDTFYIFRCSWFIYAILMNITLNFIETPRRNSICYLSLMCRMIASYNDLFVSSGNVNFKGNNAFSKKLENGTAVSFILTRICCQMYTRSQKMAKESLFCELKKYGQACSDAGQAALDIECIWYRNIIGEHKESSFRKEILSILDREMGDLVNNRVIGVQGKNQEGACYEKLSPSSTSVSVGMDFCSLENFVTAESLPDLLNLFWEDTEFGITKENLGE
Outline: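 Full-length yeast transcription factors or their DNA-binding domains, GST-tagged and expressed with PURExpress, were applied at about 100-200 nM to universal all-10-mer Agilent arrays. These arrays had been made double-stranded by primer extension on fresh or once-stripped slides. Detection used fluorescent anti-GST, normalisation used masliner, and E-scores for ungapped eight-base words pooled with reverse complements came from the Universal PBM Analysis Suite.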

Row | Sequence | PBM E-score
1 | CCTAACCC | -0.332
2 | ACGATGCT | -0.241
3 | CAATGGTC | -0.036
4 | CAAATCCG | 0.194
5 | TCAGTGCA | -0.126
6 | AAAGGTTC | 0.028
7 | AAGGGAAG | -0.194
8 | CACAACAG | -0.207
9 | CTTGGTCC | 0.0693
10 | AGAATACG | 0.0301
11 | GAACACAC | 0.00219
12 | CAGCAGGA | -0.153
13 | AACCGGGA | 0.188
14 | AGAAGTTC | -0.0981
15 | CTATACGC | -0.103
16 | CTGCTTCC | -0.197
17 | GTCGAAAA | 0.108
18 | ATAATGGC | -0.0646
19 | CAACCTAG | -0.138
20 | AGCCTGGG | -0.0738
21 | AATGCTCC | 0.0347
22 | CAGTCCCA | -0.171
23 | ATCCGGGG | 0.262
24 | AATTAACA | 0.212
25 | TGGCGACA | -0.164

Row | Sequence | PBM E-score
26 | TAAAACTA | 0.146
27 | CACTGCCA | 0.0082
28 | AAGGTGTA | -0.105
29 | CCATGCAA | 0.0458
30 | AAAGCATT | 0.121
31 | ACAACTCC | 0.00874
32 | GCGACTAC | -0.158
33 | ACTGGCTG | -0.0911
34 | CGATCTAA | 0.0794
35 | GGGGGACC | -0.381
36 | AACCCAGT | -0.129
37 | AGAATGAT | 0.144
38 | AAGTACTC | -0.147
39 | CAATAGTA | 0.0725
40 | AAATCCAG | 0.0647
41 | GTTGTCCA | -0.058
42 | GTTCGTAA | 0.0976
43 | AGCTGTGA | -0.0495
44 | CTTTAGTA | -0.0339
45 | GCTTAACA | 0.0553
46 | CGGCCCCA | -0.282
47 | ATCGAGCC | 0.113
48 | TCGGTGCA | 0.0881
49 | CTCACATA | -0.226
50 | TAGTGGAA | -0.038

Row | Sequence | PBM E-score
51 | TGAAGGCA | -0.0712
52 | CATGCATA | -0.0575
53 | CGGCGATC | 0.312
54 | CCGGCAGA | 0.265
55 | GCGCCGGA | 0.355
56 | GACCAGGC | -0.315
57 | ACGCTTAT | -0.192
58 | AGATTAGC | 0.00851
59 | GTGCAGAA | 0.0359
60 | AGAGACAG | -0.128
61 | GAGTCCTA | -0.205
62 | ATAGGGTA | -0.0831
63 | CTTGCGAC | -0.0558
64 | AACTCCAC | 0.0381
65 | AAGGTCAA | -0.199
66 | GCAGAGCA | 0.0245
67 | ATTTGGAA | 0.124
68 | TAATTCCA | 0.0901
69 | CTAGGATC | -0.109
70 | CATAGGCA | -0.237
71 | CGCCTAGA | -0.154
72 | GGGAAGTA | 0.0585
73 | GGTCCTAA | 0.117
74 | TCCCCGAA | 0.12
75 | CGCCCACG | -0.0869

Row | Sequence | PBM E-score
76 | CCGCTGTA | 0.0352
77 | CAATCGCA | -0.0595
78 | ACGACTCA | -0.152
79 | GTCACTTA | 0.122
80 | TTAATTAA | -0.041
81 | ATGGGCCG | 0.0185
82 | GACGCATC | 0.0192
83 | ATTCGTCA | -0.0398
84 | ACCCTGAC | -0.208
85 | GGATCTGA | 0.00733
86 | AGTATCTA | -0.00909
87 | AGTGTGCG | -0.0932
88 | CCTTAGGC | -0.3
89 | ATGGTGTC | -0.218
90 | ACGATTCC | 0.0125
91 | CAATGGGA | -0.0498
92 | ATGGTATC | -0.0563
93 | GTTATTGA | 0.151
94 | TAGGTATA | 0.0269
95 | AAATATGC | 0.0299
96 | GAATGGAC | -0.067
97 | CCGTATTA | 0.257
98 | AAATCCCA | -0.0495
99 | CCAACCGC | -0.0476
100 | GGTGGCTA | -0.219

From no. 19 as far as 20, copied from above:
Row | Sequence | PBM E-score
19 | CAACCTAG | -0.138
20 | AGCCTGGG | -0.0738

An excerpt of these results, as comma-separated lines:
Row,Sequence,PBM E-score
90,ACGATTCC,0.0125
91,CAATGGGA,-0.0498
92,ATGGTATC,-0.0563
93,GTTATTGA,0.151
94,TAGGTATA,0.0269

Looked up above.
PBM E-score, CAATGGTC reads -0.036
PBM E-score, GTCACTTA reads 0.122
PBM E-score, CTAGGATC reads -0.109
PBM E-score, CAACCTAG reads -0.138

Carrying on:

Row | Sequence | PBM E-score
101 | TCCGCCCA | -0.181
102 | AAGATTAT | 0.106
103 | TAATACAA | 0.205
104 | CCGGGTCC | 0.132
105 | GATTATTA | 0.185
106 | AATTTAGA | 0.142
107 | GTTGCAGA | 0.0349
108 | TTCTACAA | 0.0858
109 | TCCCTTAA | -0.166
110 | GCGTTCAA | 0.0758
111 | CTTAAATC | 0.142
112 | TCAAGTAA | 0.0762
113 | ATAAGCCG | 0.243
114 | CTCGTTCA | -0.0318
115 | CCAGTTAC | -0.331
116 | ATCCCAGG | -0.103
117 | CCTAAAAA | 0.105
118 | TGGCAAAA | 0.114
119 | ACAATTAT | 0.209
120 | ATTTGTGG | 0.131
121 | ACCAGACT | -0.0238
122 | ACGAAGTG | -0.0865
123 | GAAGAGCC | 0.181
124 | AGTCCGTA | 0.114
125 | CCCCTATC | -0.21

Row | Sequence | PBM E-score
126 | ACTCGCAC | -0.111
127 | ACCGCACG | -0.0556
128 | ATATAGTG | 0.116
129 | CCCGTCGG | 0.0504
130 | GTTCACTA | 0.0701
131 | CAATTGCG | -0.0249
132 | AATGTTCC | 0.112
133 | AGGTCATC | -0.152
134 | GCCCCAAC | -0.052
135 | ACAGCCTA | 0.124
136 | ATCAACTG | -0.0529
137 | AAGAGGTC | -0.12
138 | GCCGTTAA | 0.169
139 | ACATAGCG | -0.0851
140 | CTTTGCAC | 0.0301
141 | CAGGAGAC | -0.135
142 | GCATCCTA | -0.00376
143 | ACAACGGT | -0.0406
144 | ACACGGTA | 0.0286
145 | TAGCTGCA | -0.221
146 | ATATGGGC | -0.119
147 | AAACGATG | 0.116
148 | CCACCGAC | -0.0887
149 | AAAGAGAT | 0.0167
150 | TACAGATA | 0.134

Row | Sequence | PBM E-score
151 | AATCCTGC | -0.119
152 | ACGCGCAC | -0.0803
153 | GAAGAGCA | -0.0841
154 | CAAGAGCA | -0.211
155 | ATCCACCA | -0.189
156 | CCACGCAA | -0.0475
157 | CTTGCTTA | -0.124
158 | ATATGCCA | -0.0465
159 | AACCCGGT | 0.115
160 | TACACCGA | 0.118
161 | GAAAAGGC | -0.0855
162 | GTGCCTGA | -0.173
163 | AACACATA | 0.183
164 | TCAACAAA | 0.156
165 | AGGCAGCC | -0.039
166 | AAAACGGG | 0.138
167 | AATTGGGG | -0.256
168 | GAAGCTCA | 0.0353
169 | CGCCTCCC | -0.31
170 | AGAATGAA | 0.172
171 | TAGTTGGA | -0.00038
172 | AGACGGTA | 0.022
